The supplement of paper PMC10849652
The list shows a part of the results.

Protein sequences, listed by entry. Tags and fused reporters are not part of them. Lines headed by an entry give the natural chain unless they say otherwise; changes in a name come on top.
UniProt O75832: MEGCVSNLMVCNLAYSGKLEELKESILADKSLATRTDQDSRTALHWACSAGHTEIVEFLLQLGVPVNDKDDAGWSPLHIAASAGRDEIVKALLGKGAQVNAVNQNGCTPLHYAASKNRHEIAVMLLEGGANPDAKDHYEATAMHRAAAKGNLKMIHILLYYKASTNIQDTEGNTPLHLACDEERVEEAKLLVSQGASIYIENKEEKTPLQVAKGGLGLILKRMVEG
UniProt Q96QR8: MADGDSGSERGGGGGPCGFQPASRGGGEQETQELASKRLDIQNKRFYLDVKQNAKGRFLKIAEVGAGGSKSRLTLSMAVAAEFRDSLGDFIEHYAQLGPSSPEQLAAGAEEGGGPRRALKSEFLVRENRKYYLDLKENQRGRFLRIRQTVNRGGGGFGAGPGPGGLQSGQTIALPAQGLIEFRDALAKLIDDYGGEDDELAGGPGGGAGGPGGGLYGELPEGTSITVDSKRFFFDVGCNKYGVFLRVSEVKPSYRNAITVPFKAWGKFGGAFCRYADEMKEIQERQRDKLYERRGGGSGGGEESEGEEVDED
UniProt Q5JSZ5: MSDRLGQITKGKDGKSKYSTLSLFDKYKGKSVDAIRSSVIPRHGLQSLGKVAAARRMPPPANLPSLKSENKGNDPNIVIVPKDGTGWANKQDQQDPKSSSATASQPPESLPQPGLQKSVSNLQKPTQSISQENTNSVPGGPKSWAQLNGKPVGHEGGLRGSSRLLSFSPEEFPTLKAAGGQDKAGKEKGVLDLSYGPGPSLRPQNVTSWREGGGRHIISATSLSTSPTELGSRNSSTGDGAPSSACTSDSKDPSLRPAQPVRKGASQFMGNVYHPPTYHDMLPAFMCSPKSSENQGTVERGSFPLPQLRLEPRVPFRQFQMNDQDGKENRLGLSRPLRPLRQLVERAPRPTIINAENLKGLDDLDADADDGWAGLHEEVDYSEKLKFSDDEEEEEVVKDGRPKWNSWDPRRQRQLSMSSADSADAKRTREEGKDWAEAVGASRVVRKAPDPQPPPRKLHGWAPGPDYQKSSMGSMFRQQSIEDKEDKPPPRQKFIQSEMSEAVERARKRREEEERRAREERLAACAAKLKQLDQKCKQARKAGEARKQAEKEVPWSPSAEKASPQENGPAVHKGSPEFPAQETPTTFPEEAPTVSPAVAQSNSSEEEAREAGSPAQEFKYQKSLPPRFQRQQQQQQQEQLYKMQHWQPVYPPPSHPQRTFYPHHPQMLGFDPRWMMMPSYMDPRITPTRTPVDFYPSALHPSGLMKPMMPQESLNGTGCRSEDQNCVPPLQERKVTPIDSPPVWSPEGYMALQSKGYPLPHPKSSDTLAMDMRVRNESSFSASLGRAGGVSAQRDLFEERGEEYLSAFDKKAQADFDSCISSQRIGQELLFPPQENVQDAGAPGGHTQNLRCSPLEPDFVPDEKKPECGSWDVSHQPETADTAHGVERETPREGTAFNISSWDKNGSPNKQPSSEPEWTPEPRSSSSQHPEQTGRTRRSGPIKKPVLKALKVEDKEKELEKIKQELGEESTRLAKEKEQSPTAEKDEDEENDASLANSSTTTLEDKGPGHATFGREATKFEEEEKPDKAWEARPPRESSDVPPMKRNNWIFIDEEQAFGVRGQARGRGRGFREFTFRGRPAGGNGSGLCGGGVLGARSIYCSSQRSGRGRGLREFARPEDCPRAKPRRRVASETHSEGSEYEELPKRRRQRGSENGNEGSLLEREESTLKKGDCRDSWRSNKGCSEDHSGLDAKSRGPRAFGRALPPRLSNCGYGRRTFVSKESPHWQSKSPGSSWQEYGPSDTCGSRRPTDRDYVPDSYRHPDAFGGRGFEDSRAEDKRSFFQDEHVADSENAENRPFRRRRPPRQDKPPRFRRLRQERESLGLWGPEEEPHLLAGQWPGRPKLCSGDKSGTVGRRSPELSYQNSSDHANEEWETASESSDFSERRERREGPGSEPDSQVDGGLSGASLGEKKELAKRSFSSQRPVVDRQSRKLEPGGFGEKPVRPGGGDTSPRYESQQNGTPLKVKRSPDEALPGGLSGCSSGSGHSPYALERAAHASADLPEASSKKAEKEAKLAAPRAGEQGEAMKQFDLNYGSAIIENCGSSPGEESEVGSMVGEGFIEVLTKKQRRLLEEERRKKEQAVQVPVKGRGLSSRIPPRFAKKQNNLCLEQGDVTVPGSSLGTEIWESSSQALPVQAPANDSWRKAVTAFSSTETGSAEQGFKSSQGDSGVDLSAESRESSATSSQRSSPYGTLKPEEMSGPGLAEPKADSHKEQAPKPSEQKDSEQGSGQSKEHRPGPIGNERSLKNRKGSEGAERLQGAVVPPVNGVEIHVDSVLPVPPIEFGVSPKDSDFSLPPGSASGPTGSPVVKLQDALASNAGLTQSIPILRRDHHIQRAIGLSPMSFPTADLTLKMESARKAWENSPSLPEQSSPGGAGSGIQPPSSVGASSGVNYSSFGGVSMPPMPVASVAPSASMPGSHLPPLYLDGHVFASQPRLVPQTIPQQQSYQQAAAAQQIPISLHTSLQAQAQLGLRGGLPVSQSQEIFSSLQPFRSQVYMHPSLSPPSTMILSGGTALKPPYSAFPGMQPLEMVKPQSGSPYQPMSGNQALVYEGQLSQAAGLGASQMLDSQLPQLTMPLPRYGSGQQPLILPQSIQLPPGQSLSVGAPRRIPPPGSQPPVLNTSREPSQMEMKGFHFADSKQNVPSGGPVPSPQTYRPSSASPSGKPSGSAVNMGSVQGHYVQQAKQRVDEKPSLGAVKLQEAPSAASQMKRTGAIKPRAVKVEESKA
UniProt Q03393: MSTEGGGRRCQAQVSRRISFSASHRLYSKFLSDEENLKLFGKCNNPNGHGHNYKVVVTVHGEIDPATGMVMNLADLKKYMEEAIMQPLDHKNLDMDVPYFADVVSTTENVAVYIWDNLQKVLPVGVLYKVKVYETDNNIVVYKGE
UniProt Q9P2B2: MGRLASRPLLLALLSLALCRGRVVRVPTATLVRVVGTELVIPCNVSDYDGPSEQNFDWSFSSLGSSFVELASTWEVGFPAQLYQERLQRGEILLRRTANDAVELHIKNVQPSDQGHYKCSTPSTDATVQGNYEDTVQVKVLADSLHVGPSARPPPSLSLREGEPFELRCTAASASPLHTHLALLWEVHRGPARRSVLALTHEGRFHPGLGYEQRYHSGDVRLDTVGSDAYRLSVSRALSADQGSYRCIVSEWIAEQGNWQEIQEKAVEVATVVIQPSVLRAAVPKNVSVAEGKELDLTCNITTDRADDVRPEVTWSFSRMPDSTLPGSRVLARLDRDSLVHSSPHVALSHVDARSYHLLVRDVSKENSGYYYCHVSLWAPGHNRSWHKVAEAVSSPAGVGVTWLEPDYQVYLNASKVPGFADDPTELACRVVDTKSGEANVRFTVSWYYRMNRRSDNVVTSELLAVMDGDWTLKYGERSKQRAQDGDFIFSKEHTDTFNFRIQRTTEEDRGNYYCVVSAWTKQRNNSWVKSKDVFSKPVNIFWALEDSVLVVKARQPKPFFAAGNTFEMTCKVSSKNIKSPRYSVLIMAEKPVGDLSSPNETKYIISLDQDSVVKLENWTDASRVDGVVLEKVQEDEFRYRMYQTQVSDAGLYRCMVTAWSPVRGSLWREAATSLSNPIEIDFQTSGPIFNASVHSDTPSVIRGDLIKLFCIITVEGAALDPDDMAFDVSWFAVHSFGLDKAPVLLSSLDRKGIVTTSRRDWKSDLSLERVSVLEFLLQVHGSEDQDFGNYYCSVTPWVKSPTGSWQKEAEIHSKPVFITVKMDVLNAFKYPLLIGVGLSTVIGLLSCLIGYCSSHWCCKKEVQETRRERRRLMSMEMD
UniProt O00232: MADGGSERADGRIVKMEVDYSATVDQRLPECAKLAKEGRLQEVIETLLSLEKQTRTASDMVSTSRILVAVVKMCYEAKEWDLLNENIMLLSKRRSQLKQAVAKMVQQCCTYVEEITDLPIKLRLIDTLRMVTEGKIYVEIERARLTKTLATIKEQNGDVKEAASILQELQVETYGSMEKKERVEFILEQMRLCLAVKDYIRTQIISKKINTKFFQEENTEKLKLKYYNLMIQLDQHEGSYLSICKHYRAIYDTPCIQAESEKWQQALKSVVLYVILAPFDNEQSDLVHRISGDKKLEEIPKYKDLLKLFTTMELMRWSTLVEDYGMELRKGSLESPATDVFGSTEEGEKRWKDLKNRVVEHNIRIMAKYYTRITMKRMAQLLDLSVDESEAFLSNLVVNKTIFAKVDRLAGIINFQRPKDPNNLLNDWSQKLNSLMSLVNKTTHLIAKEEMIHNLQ
UniProt P25789: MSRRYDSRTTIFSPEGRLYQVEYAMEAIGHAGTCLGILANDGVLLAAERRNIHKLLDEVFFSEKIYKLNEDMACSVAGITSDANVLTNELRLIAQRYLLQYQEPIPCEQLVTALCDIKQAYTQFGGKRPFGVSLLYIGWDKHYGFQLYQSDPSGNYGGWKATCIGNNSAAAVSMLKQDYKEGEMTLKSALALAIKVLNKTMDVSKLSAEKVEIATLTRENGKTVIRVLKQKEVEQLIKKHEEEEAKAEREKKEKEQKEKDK
UniProt P28065: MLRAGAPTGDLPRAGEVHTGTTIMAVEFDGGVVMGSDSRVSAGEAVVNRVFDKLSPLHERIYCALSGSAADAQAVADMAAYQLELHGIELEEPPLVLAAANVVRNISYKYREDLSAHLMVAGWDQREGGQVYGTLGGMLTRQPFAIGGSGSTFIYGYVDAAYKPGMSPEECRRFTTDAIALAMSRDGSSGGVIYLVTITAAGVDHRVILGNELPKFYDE
UniProt O00231, whole entry, looked up: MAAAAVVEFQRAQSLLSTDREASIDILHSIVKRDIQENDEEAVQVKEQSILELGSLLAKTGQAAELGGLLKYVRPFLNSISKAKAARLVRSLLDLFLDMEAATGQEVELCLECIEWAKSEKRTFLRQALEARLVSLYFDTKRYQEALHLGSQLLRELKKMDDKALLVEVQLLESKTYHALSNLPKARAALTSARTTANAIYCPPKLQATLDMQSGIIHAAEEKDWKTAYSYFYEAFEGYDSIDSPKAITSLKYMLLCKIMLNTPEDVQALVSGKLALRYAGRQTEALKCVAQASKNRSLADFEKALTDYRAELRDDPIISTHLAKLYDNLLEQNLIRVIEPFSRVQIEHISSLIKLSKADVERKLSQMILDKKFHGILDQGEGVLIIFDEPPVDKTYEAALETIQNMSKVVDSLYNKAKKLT
UniProt Q569H4: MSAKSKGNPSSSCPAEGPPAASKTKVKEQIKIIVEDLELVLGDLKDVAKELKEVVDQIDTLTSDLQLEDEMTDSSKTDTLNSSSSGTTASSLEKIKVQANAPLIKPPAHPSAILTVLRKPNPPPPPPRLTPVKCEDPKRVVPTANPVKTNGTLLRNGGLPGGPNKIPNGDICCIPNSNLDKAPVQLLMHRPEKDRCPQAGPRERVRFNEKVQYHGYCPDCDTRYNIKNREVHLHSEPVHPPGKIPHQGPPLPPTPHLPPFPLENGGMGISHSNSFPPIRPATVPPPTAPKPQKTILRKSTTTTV
UniProt O14818: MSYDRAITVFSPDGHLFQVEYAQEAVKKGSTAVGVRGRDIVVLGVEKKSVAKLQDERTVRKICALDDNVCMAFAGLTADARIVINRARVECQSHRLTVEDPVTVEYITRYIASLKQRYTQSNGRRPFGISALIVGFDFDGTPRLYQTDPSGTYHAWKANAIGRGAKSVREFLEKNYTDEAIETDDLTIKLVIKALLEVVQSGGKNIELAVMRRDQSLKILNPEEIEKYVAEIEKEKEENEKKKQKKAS
UniProt Q96N64: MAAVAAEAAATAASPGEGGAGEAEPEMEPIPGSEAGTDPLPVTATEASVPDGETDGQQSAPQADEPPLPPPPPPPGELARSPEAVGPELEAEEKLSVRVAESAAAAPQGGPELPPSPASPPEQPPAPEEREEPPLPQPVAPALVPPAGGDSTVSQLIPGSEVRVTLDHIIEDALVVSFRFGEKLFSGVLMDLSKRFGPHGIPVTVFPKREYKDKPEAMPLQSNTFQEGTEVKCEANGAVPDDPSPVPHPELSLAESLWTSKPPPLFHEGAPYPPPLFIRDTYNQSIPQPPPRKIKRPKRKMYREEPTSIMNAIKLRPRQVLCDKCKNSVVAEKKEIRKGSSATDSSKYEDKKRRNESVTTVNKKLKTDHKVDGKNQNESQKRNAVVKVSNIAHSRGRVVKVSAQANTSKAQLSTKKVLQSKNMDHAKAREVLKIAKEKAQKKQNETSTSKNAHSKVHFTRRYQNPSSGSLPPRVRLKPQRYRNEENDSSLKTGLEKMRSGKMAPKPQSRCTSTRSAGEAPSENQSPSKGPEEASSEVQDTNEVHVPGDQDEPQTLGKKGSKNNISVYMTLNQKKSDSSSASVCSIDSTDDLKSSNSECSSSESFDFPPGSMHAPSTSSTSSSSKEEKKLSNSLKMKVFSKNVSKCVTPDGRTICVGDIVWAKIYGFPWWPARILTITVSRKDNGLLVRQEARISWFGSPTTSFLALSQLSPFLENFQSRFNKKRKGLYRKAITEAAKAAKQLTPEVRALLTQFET

Columns and labels:
Experiment in all cases: log2 fold change, soluble protein after heating vs DMSO (PISA); higher = thermal stabilisation; K562 lysate, 10 uM; active = over 0.2 and 3.5 SD of the protein, either way, in both replicates (recomputed)
alvocidib = compound: CN1CC[C@H](c2c(O)cc(O)c3c(=O)cc(-c4ccccc4Cl)oc23)[C@H](O)C1 [alvocidib]
Method in brief: (§1)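 Dounce homogenisation of K562 pellets in PBS pH 7.4 with 1 mM MgCl2 produced a crude extract, used at 1 mg/mL protein. Exposure to 10 μM compound lasted 30 min, and aliquots were then heated for 3 min across 48°C-58°C, pooled and brought to 0.5% NP-40 at 4°C. The supernatant after 21,000xg for 90 min was quantified by TMTpro 16plex LC-MS/MS with channel sums equalised. Duplicate values are given as log-two fold change in thermal stability relative to solvent controls.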

Tubastatin A = compound: CN1CCc2c(c3ccccc3n2Cc2ccc(C(=O)NO)cc2)C1 [Tubastatin A]
Method in brief: as §1

[1] = compound: CNC(=O)C1=CC=CC=C1NC2=NC(=NC=C2Cl)NC3=C(C=C(C=C3)N4CCOCC4)OC
Method in brief: as §1

defactinib = compound: CNC(=O)c1ccc(Nc2ncc(C(F)(F)F)c(NCc3nccnc3N(C)S(C)(=O)=O)n2)cc1 [defactinib]
Method in brief: as §1

[2] = compound: CNc1nc(-c2ccc3c(N)n[nH]c3c2)cc(N2C[C@@H](C(=O)NC3CCCCC3)CC[C@H]2C)n1
Method in brief: as §1

encorafenib = compound: COC(=O)N[C@@H](C)CNc1nccc(-c2cn(C(C)C)nc2-c2cc(Cl)cc(NS(C)(=O)=O)c2F)n1 [encorafenib]
Method in brief: as §1

[3] = compound: COC(=O)[C@H](CCSC)NC(=O)C1=C(C=C(C=C1)NC[C@H](CS)N)C2=CC=CC=C2
Method in brief: as §1

alisertib = compound: COc1cc(Nc2ncc3c(n2)-c2ccc(Cl)cc2C(c2c(F)cccc2OC)=NC3)ccc1C(=O)O [alisertib]
Method in brief: as §1

[4] = compound: COc1cc2nc(-c3cc(F)ccc3O)nc(N[C@@H]3CNC[C@H]3C(C)(C)O)c2cc1OC
Method in brief: as §1

gefitinib = compound: COc1cc2ncnc(Nc3ccc(F)c(Cl)c3)c2cc1OCCCN1CCOCC1 [gefitinib]
Method in brief: as §1

lapatinib = compound: CS(=O)(=O)CCNCc1ccc(-c2ccc3ncnc(Nc4ccc(OCc5cccc(F)c5)c(Cl)c4)c3c2)o1 [lapatinib]
Method in brief: as §1

pictilisib = compound: CS(=O)(=O)N1CCN(Cc2cc3nc(-c4cccc5[nH]ncc45)nc(N4CCOCC4)c3s2)CC1 [pictilisib]
Method in brief: as §1

crizotinib = compound: C[C@@H](Oc1cc(-c2cnn(C3CCNCC3)c2)cnc1N)c1c(Cl)ccc(F)c1Cl [crizotinib]
Method in brief: as §1

[5] = compound: C[C@H](C1=CC=C(C=C1)C(=O)NC2=C3C=CNC3=NC=C2)N
Method in brief: as §1

duvelisib = compound: C[C@H](Nc1ncnc2nc[nH]c12)c1cc2cccc(Cl)c2c(=O)n1-c1ccccc1 [duvelisib]
Method in brief: as §1

gandotinib = compound: Cc1cc(Nc2cc(CN3CCOCC3)c3nc(C)c(Cc4ccc(Cl)cc4F)n3n2)n[nH]1 [gandotinib]
Method in brief: as §1

tozasertib = compound: Cc1cc(Nc2cc(N3CCN(C)CC3)nc(Sc3ccc(NC(=O)C4CC4)cc3)n2)n[nH]1 [tozasertib]
Method in brief: as §1

doramapimod = compound: Cc1ccc(-n2nc(C(C)(C)C)cc2NC(=O)Nc2ccc(OCCN3CCOCC3)c3ccccc23)cc1 [doramapimod]
Method in brief: as §1

bafetinib = compound: Cc1ccc(NC(=O)c2ccc(CN3CC[C@H](N(C)C)C3)c(C(F)(F)F)c2)cc1Nc1nccc(-c2cncnc2)n1 [bafetinib]
Method in brief: as §1

[6] = compound: Cc1cccc(CC(=O)N2CCc3c2ccc(-c2cn(C)c4ncnc(N)c24)c3F)n1
Method in brief: as §1

Measured: log2 fold change

PSMD10 (UniProt O75832)
inactive: alvocidib 0 | Tubastatin A 0.002 | [1] -0.006 | defactinib -0.018 | [2] 0.028 | encorafenib -0.016 | [3] -0.008 | alisertib 0.018 | [4] 0.009 | gefitinib -0.045 | lapatinib -0.027 | pictilisib -0.011 | crizotinib -0.02 | [5] -0.044 | duvelisib 0.018 | gandotinib 0.011 | tozasertib -0.008 | doramapimod -0.037 | bafetinib 0.003 | [6] 0.047

PURB (UniProt Q96QR8)
inactive: alvocidib -0.004 | Tubastatin A -0.04 | [1] 0.009 | defactinib -0.009 | [2] -0.067 | encorafenib 0.07 | [3] 0.017 | alisertib -0.011 | [4] -0.005 | gefitinib 0.025 | lapatinib 0.024 | pictilisib 0.057 | crizotinib 0.102 | [5] -0.02 | duvelisib 0.018 | gandotinib -0.044 | tozasertib 0.12 | doramapimod -0.063 | bafetinib 0.083 | [6] 0.044

PRRC2B (UniProt Q5JSZ5)
inactive: alvocidib 0.043 | Tubastatin A -0.033 | [1] 0.027 | defactinib 0.016 | [2] 0.043 | encorafenib 0.097 | [3] -0.053 | alisertib 0.01 | [4] 0.024 | gefitinib -0.065 | lapatinib 0.103 | pictilisib -0.036 | crizotinib 0.091 | [5] -0.005 | duvelisib -0.009 | gandotinib 0.04 | tozasertib 0.018 | doramapimod -0.044 | bafetinib 0.075 | [6] -0.017

PTS (UniProt Q03393)
inactive: alvocidib -0.055 | Tubastatin A -0.007 | [1] 0.043 | defactinib -0.059 | [2] 0.015 | encorafenib 0.1 | [3] -0.022 | alisertib -0.009 | [4] 0.016 | gefitinib 0.121 | lapatinib -0.018 | pictilisib 0.008 | crizotinib 0.051 | [5] -0.024 | duvelisib 0.051 | gandotinib -0.039 | tozasertib 0.031 | doramapimod -0.069 | bafetinib 0 | [6] 0.05

PTGFRN (UniProt Q9P2B2)
inactive: alvocidib 0.021 | Tubastatin A 0.021 | [1] -0.017 | defactinib 0.035 | [2] -0.029 | encorafenib 0.02 | [3] -0.041 | alisertib -0.022 | [4] 0.004 | gefitinib 0.018 | lapatinib -0.011 | pictilisib -0.046 | crizotinib 0.013 | [5] 0.008 | duvelisib 0.045 | gandotinib 0.008 | tozasertib -0.013 | doramapimod -0.021 | bafetinib -0.004 | [6] -0.001

PSMD12 (UniProt O00232)
inactive: alvocidib 0.023 | Tubastatin A 0.007 | [1] -0.004 | defactinib 0.021 | [2] -0.024 | encorafenib -0.006 | [3] 0.012 | alisertib 0.004 | [4] 0.004 | gefitinib 0 | lapatinib -0.026 | pictilisib -0.014 | crizotinib -0.005 | [5] 0.022 | duvelisib -0.008 | gandotinib -0.069 | tozasertib -0.009 | doramapimod 0.012 | bafetinib -0.02 | [6] -0.025

PSMA4 (UniProt P25789)
inactive: alvocidib 0.019 | Tubastatin A 0.026 | [1] 0 | defactinib -0.011 | [2] 0.012 | encorafenib -0.005 | [3] -0.004 | alisertib -0.007 | [4] 0.01 | gefitinib 0.014 | lapatinib -0.001 | pictilisib 0.038 | crizotinib 0.027 | [5] 0.001 | duvelisib 0.008 | gandotinib 0.013 | tozasertib -0.041 | doramapimod -0.006 | bafetinib 0.033 | [6] 0

PTPN11 isoform 1 (UniProt Q06124)
inactive: alvocidib -0.001 | Tubastatin A -0.018 | [1] -0.033 | defactinib -0.022 | [2] -0.01 | encorafenib -0.002 | [3] 0.006 | alisertib -0.007 | [4] 0.004 | gefitinib 0.019 | lapatinib -0.004 | pictilisib 0.001 | crizotinib 0.03 | [5] 0.012 | duvelisib 0.018 | gandotinib -0.026 | tozasertib -0.021 | doramapimod -0.003 | bafetinib 0.063 | [6] -0.007

PSMB9 (UniProt P28065)
inactive: alvocidib -0.052 | Tubastatin A 0.076 | [1] 0.006 | defactinib 0.034 | [2] 0.31 | encorafenib -0.076 | [3] 0.027 | alisertib -0.04 | [4] 0.139 | gefitinib -0.016 | lapatinib -0.093 | pictilisib 0.028 | crizotinib -0.098 | [5] -0.033 | duvelisib 0.01 | gandotinib 0.013 | tozasertib -0.087 | doramapimod -0.033 | bafetinib -0.25 | [6] 0.022

PSMD11 (UniProt O00231)
inactive: alvocidib 0.028 | Tubastatin A 0.011 | [1] 0.006 | defactinib 0.017 | [2] -0.022 | encorafenib -0.009 | [3] 0.042 | alisertib 0.001 | [4] 0 | gefitinib -0.029 | lapatinib -0.013 | pictilisib -0.009 | crizotinib 0.026 | [5] -0.012 | duvelisib 0.003 | gandotinib -0.054 | tozasertib -0.032 | doramapimod -0.04 | bafetinib -0.012 | [6] -0.027

PSME3 (UniProt K7EMD0)
inactive: alisertib -0.06 | [4] 0.052 | gefitinib 0.101 | lapatinib -0.14

PRR16 (UniProt Q569H4)
inactive: crizotinib -0.124 | doramapimod 0.036

PTGDR2 (UniProt Q9Y5Y4)
inactive: alvocidib 0.043 | [5] 0.092 | gandotinib -0.133 | [6] 0.049

PTPA (UniProt Q5T948)
inactive: Tubastatin A -0.247 | defactinib -0.165 | [4] 0.046 | lapatinib -0.062

PSMC3 (UniProt E9PLG2)
inactive: defactinib -0.008

PSMC5 (UniProt J3KRP2)
inactive: alisertib -0.057 | [4] 0.064 | gefitinib -0.006 | lapatinib -0.021

PTPN11 (UniProt Q06124)
inactive: alvocidib -0.008 | [5] -0.067 | gandotinib 0.034 | [6] 0.051

PTPA (UniProt A6PVN8)
inactive: encorafenib 0.028 | [3] 0.281 | tozasertib -0.066

PRR3 (UniProt P79522)
inactive: defactinib -0.035 | alisertib -0.002 | [4] 0 | gefitinib 0.183 | lapatinib -0.059 | crizotinib -0.067 | doramapimod 0.215

PSMD6 (UniProt Q15008)
inactive: alvocidib -0.277 | alisertib -0.022 | [4] 0.019 | gefitinib -0.034 | lapatinib 0.139 | pictilisib -0.075 | crizotinib -0.166 | [5] 0 | gandotinib -0.024 | doramapimod 0.134 | bafetinib 0.138 | [6] 0.073

PSMA7 isoform 2 (UniProt O14818)
inactive: [2] -0.147 | encorafenib 0.005 | [3] 0.125 | alisertib 0.201 | gefitinib 0.115 | crizotinib 0.053 | duvelisib 0.044 | tozasertib 0.354 | doramapimod 0.093

PTBP1, A0A0U1RRM4
inactive: [4] -0.081 | lapatinib -0.074

PWWP2A (UniProt Q96N64)
inactive: alvocidib -0.165 | [5] -0.197 | gandotinib -0.567 | [6] 0.117

PSTK (UniProt H7BYY4)
inactive: alvocidib -0.019 | [2] -0.116 | [5] 0.021 | duvelisib -0.001 | gandotinib -0.042 | [6] 0.206

2 consecutive entries already listed:
PWWP2A (UniProt Q96N64)
inactive: alvocidib -0.165 | [5] -0.197 | gandotinib -0.567 | [6] 0.117

PSTK (UniProt H7BYY4)
inactive: alvocidib -0.019 | [2] -0.116 | [5] 0.021 | duvelisib -0.001 | gandotinib -0.042 | [6] 0.206
